Taken from: PubChem BioAssay AID1259405 (NCATS, 2018)
In all, the deposit lists about 50,000 reagents; below is a random part of them. About 4,000 of them (8%) count as active. 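Mouse siRNA library applied to hamster cells; one well for each siRNA.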 Reagents against one gene are numbered here.

Aim: 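Silenced genes that increase secreted GFP made by CHO cells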 (primary screen)
Cells: Chinese hamster CHO-K1 ovary cells with stable secreted eGFP expression
Reagent: single siRNA against mouse genes, 0.8 pmol siRNA per well (2 µl of 400 nM stock)
Time to read-out: 3 days
Measured: 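Per-well intracellular GFP measured by laser scanning cytometry, plus viability from ATP luminescence, each relative to plate median of non-targeting control wells, in %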
Direction: GFP, % of control: higher = more GFP per well, higher productivity; viability (ATP), % of control: higher = more viable cells (more ATP)
Rule for the call: 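a knock-down is called active if GFP reaches 120% or more of non-targeting control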

Target gene	reagent no.	GFP, % of control	viability (ATP), % of control	activity call
Serpinf2 (serine (or cysteine) peptidase inhibitor, clade F, member 2)	1	84	105	inactive
Serpinf2 (serine (or cysteine) peptidase inhibitor, clade F, member 2)	2	112	113	inactive
Serpinf2 (serine (or cysteine) peptidase inhibitor, clade F, member 2)	3	39.2	72	inactive
Pou4f1 (POU domain, class 4, transcription factor 1)	1	92.2	76.1	inactive
Pou4f1 (POU domain, class 4, transcription factor 1)	2	143	108	active
Pou4f1 (POU domain, class 4, transcription factor 1)	3	56.2	78	inactive
Unc119b (unc-119 lipid binding chaperone B)	1	30.4	45.5	inactive
Unc119b (unc-119 lipid binding chaperone B)	2	84.1	87.9	inactive
Unc119b (unc-119 lipid binding chaperone B)	3	73.4	78.9	inactive
Acyp1 (acylphosphatase 1)	1	92.7	82.4	inactive
Acyp1 (acylphosphatase 1)	2	48.2	61.5	inactive
Acyp1 (acylphosphatase 1)	3	81.1	97	inactive
Selenom (selenoprotein M)	1	47.7	32.2	inactive
Selenom (selenoprotein M)	2	79	68	inactive
Selenom (selenoprotein M)	3	62.1	69.1	inactive
Spag6l (sperm associated antigen 6-like)	1	109	91.3	inactive
Spag6l (sperm associated antigen 6-like)	2	74.2	62.8	inactive
Spag6l (sperm associated antigen 6-like)	3	64.6	82.3	inactive
Nrap (nebulin-related anchoring protein)	1	93.5	56.4	inactive
Nrap (nebulin-related anchoring protein)	2	80.6	72.9	inactive
Nrap (nebulin-related anchoring protein)	3	150	68.2	active
Atrnl1 (attractin like 1)	1	66.5	71.8	inactive
Atrnl1 (attractin like 1)	2	1.47	36.4	inactive
Ptn (pleiotrophin)	1	0.00754	113	inactive
Ptn (pleiotrophin)	2	84.7	79.7	inactive
Ldoc1 (regulator of NFKB signaling)	1	52.1	64.9	inactive
Ldoc1 (regulator of NFKB signaling)	2	32.9	71	inactive
Ldoc1 (regulator of NFKB signaling)	3	116	91.2	inactive
Lynx1 (Ly6/neurotoxin 1)	1	92.8	82.2	inactive
Lynx1 (Ly6/neurotoxin 1)	2	125	86.7	active
Lynx1 (Ly6/neurotoxin 1)	3	84.7	101	inactive
Rbak (RB-associated KRAB zinc finger)	1	58.7	56.9	inactive
Rbak (RB-associated KRAB zinc finger)	2	81.1	97.4	inactive
Rbak (RB-associated KRAB zinc finger)	3	83.1	80.2	inactive
Klk1b22 (kallikrein 1-related peptidase b22)	1	134	113	active
Klk1b22 (kallikrein 1-related peptidase b22)	2	94.1	60.3	inactive
Klk1b22 (kallikrein 1-related peptidase b22)	3	92.3	71.5	inactive
Mrgpra7 (MAS-related GPR, member A7)	1	59.5	42.5	inactive
Mrgpra7 (MAS-related GPR, member A7)	2	77.6	81.8	inactive
Mrgpra7 (MAS-related GPR, member A7)	3	86.8	84.5	inactive
Ccdc42 (coiled-coil domain containing 42)	1	114	120	inactive
Ccdc42 (coiled-coil domain containing 42)	2	91.2	111	inactive
Ccdc42 (coiled-coil domain containing 42)	3	75.4	81.5	inactive
Sim1 (single-minded family bHLH transcription factor 1)	1	102	110	inactive
Sim1 (single-minded family bHLH transcription factor 1)	2	97.2	91.1	inactive
Sim1 (single-minded family bHLH transcription factor 1)	3	95.6	113	inactive
Noc3l (NOC3 like DNA replication regulator)	1	102	78.9	inactive
Noc3l (NOC3 like DNA replication regulator)	2	92.6	55.2	inactive
Noc3l (NOC3 like DNA replication regulator)	3	74.4	76	inactive
Crcp (calcitonin gene-related peptide-receptor component protein)	1	195	92.1	active
Crcp (calcitonin gene-related peptide-receptor component protein)	2	115	88.6	inactive
Crcp (calcitonin gene-related peptide-receptor component protein)	3	72.7	69.7	inactive
Mtch2	1	84.4	76.1	inactive
Mtch2	2	69	52.1	inactive
Mtch2	3	101	90.3	inactive
Nop53 (NOP53 ribosome biogenesis factor)	1	74.4	73.3	inactive
Nop53 (NOP53 ribosome biogenesis factor)	2	46.3	49.2	inactive
Nop53 (NOP53 ribosome biogenesis factor)	3	101	96.7	inactive
Pwwp3a (PWWP domain containing 3A, DNA repair factor)	1	79.4	58.3	inactive
Pwwp3a (PWWP domain containing 3A, DNA repair factor)	2	51.3	71.6	inactive
Pwwp3a (PWWP domain containing 3A, DNA repair factor)	3	33.9	54	inactive
Il13ra1 (interleukin 13 receptor, alpha 1)	1	74.5	58.7	inactive
Il13ra1 (interleukin 13 receptor, alpha 1)	2	41.4	26.9	inactive
Il13ra1 (interleukin 13 receptor, alpha 1)	3	71.8	71.8	inactive
Rnf32 (ring finger protein 32)	1	96	72.7	inactive
Rnf32 (ring finger protein 32)	2	66.3	49.4	inactive
Rnf32 (ring finger protein 32)	3	79	72.1	inactive
H1f0 (H1.0 linker histone)	1	65.8	80.4	inactive
H1f0 (H1.0 linker histone)	2	99.4	87	inactive
H1f0 (H1.0 linker histone)	3	73.6	44.4	inactive
B430209F14Rik (RIKEN cDNA B430209F14 gene)	1	70.7	31	inactive
B430209F14Rik (RIKEN cDNA B430209F14 gene)	2	75.3	91.5	inactive
B430209F14Rik (RIKEN cDNA B430209F14 gene)	3	60.1	34.2	inactive
Vamp3 (vesicle-associated membrane protein 3)	1	57	83.1	inactive
Vamp3 (vesicle-associated membrane protein 3)	2	49.1	42	inactive
Vamp3 (vesicle-associated membrane protein 3)	3	92.7	76.9	inactive
Tssk6 (testis-specific serine kinase 6)	1	70.4	50	inactive
Gabra4 (gamma-aminobutyric acid type A receptor subunit alpha 4)	1	67.4	82.9	inactive
Gabra4 (gamma-aminobutyric acid type A receptor subunit alpha 4)	2	66	63.1	inactive
Gabra4 (gamma-aminobutyric acid type A receptor subunit alpha 4)	3	50	77.3	inactive
Pla2g7	1	85.6	71.6	inactive
Pla2g7	2	203	159	active
Lgals9 (lectin, galactose binding, soluble 9)	1	49.7	61.4	inactive
Lgals9 (lectin, galactose binding, soluble 9)	2	59.1	34.3	inactive
Lgals9 (lectin, galactose binding, soluble 9)	3	62.8	62.2	inactive

Entries listed above called active, once more:
Target gene	reagent no.	GFP, % of control	viability (ATP), % of control	activity call
Pou4f1 (POU domain, class 4, transcription factor 1)	2	143	108	active
Nrap (nebulin-related anchoring protein)	3	150	68.2	active
Lynx1 (Ly6/neurotoxin 1)	2	125	86.7	active
Klk1b22 (kallikrein 1-related peptidase b22)	1	134	113	active
Crcp (calcitonin gene-related peptide-receptor component protein)	1	195	92.1	active
Pla2g7	2	203	159	active
